Source: patent US7994122B2 (Zealand Pharma A/S, priority 2007, dated 2011)

Assay: peptide synthesis
Settings: whole synthesis

Substance: Exendin-4
- purity (crude or final not stated): 98%

Substance: Oxyntomodulin
- purity (crude or final not stated): 91%

Substance: H-HSQGTFTSDYSKYLDRARADDFVAWLKST-NH2
- purity (crude or final not stated): 90%
